The list shows a part of the results.

Amino acid sequences for entries named in this document (tags omitted). A change or cut given only in a name is not applied to a line headed by its entry.
UniProt Q8N6D5: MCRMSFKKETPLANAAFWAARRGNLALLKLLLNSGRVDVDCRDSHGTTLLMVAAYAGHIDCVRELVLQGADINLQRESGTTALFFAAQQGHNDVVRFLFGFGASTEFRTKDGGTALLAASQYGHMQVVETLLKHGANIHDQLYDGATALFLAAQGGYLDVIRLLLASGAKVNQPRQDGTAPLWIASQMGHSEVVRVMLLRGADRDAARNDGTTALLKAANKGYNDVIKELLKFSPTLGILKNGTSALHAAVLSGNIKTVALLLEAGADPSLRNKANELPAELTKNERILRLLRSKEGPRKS
UniProt Q6AI12: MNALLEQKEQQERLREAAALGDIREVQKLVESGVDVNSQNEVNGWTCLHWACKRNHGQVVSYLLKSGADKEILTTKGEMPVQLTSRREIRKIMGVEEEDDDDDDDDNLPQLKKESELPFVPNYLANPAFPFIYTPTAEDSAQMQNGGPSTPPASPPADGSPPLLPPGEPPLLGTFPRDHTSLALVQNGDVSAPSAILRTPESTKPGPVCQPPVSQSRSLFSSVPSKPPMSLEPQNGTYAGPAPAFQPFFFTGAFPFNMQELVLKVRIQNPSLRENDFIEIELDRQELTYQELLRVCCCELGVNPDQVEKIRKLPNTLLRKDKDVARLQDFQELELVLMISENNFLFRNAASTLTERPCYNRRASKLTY
UniProt Q8N8A2: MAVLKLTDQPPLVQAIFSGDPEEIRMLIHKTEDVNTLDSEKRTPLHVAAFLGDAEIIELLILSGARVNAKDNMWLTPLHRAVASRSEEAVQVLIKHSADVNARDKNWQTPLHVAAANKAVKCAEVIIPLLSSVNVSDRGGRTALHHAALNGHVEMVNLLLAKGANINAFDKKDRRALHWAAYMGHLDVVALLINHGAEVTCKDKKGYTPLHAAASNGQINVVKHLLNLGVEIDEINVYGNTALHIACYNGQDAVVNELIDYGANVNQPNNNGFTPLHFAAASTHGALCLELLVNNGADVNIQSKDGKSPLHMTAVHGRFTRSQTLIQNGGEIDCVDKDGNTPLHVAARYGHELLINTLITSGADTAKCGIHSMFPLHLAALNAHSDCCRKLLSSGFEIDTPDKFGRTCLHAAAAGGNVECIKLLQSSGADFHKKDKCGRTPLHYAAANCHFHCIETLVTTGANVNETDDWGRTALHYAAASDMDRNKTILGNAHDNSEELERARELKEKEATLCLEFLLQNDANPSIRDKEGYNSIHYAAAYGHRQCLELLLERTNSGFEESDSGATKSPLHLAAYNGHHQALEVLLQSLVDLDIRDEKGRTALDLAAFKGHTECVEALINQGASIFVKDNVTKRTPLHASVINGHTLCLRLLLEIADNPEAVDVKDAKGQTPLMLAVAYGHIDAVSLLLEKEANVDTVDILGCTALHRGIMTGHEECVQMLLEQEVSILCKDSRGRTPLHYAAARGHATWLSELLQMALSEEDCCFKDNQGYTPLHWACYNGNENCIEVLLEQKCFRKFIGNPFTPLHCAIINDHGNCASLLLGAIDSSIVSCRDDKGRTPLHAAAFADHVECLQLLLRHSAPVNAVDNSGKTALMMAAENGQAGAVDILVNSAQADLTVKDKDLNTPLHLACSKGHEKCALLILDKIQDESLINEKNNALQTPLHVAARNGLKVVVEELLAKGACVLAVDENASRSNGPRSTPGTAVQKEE
UniProt O00189: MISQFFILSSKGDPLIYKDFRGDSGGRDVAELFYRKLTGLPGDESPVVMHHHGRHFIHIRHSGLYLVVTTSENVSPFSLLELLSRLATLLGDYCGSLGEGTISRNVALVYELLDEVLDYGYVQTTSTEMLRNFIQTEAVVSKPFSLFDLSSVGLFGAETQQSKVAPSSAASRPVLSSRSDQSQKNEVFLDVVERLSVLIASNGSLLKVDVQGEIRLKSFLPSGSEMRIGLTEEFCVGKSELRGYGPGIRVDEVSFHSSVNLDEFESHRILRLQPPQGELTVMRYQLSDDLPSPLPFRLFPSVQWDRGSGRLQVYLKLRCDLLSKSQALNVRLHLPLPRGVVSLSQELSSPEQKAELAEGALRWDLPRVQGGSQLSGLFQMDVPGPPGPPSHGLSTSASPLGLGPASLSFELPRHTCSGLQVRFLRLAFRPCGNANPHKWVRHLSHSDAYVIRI
UniProt P49189: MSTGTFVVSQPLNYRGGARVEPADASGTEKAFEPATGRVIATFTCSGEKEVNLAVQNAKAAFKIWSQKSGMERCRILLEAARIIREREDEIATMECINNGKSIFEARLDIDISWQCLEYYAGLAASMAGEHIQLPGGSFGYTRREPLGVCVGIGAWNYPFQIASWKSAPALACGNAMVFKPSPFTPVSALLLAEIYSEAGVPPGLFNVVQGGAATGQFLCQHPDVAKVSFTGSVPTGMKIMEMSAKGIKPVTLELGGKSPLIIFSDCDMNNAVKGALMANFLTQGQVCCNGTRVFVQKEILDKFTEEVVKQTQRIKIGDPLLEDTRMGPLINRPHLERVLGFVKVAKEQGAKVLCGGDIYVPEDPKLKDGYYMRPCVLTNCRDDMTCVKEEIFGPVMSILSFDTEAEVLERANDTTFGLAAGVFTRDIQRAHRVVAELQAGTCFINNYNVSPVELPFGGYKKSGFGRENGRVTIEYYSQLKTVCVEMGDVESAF
UniProt Q9HCJ1: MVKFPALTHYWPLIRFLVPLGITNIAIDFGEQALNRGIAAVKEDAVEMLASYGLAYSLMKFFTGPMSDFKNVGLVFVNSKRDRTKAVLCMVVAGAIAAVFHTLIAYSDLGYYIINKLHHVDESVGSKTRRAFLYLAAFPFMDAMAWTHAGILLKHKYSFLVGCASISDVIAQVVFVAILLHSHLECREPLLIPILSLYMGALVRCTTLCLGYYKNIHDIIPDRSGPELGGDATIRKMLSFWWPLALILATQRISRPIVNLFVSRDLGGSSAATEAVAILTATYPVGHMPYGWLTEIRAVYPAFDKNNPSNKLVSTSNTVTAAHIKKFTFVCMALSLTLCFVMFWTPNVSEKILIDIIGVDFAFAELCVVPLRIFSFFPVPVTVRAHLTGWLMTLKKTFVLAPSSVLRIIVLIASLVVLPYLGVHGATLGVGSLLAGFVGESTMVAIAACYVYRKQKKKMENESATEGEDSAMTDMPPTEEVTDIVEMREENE
UniProt Q86XL3: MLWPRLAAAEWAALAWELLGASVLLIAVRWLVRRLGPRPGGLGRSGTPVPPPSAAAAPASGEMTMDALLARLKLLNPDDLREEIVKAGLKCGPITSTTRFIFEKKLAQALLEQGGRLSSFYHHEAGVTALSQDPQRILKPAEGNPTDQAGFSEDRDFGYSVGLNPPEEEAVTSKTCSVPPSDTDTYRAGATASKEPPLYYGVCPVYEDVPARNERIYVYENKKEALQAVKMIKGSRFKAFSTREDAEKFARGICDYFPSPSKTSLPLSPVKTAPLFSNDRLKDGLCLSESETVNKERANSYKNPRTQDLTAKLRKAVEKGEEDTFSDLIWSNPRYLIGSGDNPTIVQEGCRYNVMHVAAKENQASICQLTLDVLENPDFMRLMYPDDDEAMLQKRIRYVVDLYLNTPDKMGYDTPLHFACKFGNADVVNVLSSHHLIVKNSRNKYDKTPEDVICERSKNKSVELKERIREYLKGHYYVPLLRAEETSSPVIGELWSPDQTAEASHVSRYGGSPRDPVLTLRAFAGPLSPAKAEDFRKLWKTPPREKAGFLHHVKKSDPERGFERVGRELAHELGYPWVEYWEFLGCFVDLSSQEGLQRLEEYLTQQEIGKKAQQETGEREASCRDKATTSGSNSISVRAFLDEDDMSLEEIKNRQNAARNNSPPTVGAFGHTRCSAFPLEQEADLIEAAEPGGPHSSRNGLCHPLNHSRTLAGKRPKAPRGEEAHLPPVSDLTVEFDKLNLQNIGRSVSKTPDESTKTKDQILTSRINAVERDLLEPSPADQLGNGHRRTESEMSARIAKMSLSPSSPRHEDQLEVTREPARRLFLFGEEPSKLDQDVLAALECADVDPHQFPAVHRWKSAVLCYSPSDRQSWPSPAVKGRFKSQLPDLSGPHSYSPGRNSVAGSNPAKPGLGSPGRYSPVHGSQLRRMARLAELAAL
UniProt P53677: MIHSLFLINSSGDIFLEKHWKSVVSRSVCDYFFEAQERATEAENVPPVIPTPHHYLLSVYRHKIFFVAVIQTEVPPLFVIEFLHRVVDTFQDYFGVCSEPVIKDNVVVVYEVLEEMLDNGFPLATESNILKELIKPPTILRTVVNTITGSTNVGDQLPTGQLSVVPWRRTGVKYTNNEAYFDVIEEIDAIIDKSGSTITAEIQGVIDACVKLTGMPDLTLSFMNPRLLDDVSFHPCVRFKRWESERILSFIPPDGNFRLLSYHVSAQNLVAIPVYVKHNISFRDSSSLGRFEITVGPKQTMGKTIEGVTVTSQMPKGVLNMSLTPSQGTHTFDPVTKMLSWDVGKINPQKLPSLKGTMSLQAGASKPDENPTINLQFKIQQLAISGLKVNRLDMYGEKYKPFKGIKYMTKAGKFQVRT
UniProt Q6ZW76: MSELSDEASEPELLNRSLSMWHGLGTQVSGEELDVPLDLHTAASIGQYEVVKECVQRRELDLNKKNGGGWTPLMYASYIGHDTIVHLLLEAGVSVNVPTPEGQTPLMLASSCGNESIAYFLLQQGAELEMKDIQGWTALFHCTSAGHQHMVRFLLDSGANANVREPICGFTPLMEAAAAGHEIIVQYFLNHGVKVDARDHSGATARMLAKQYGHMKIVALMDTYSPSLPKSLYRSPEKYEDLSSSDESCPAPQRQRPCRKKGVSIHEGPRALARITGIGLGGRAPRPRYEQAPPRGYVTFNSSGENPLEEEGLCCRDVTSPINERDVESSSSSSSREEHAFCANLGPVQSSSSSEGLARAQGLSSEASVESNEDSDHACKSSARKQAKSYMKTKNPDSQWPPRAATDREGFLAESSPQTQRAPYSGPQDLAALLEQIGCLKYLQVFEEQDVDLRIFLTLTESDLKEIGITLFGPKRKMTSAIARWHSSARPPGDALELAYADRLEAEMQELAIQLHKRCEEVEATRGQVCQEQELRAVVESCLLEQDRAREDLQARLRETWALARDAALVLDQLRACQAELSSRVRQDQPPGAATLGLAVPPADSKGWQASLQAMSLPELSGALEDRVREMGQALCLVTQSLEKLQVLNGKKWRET
UniProt Q9BTT0: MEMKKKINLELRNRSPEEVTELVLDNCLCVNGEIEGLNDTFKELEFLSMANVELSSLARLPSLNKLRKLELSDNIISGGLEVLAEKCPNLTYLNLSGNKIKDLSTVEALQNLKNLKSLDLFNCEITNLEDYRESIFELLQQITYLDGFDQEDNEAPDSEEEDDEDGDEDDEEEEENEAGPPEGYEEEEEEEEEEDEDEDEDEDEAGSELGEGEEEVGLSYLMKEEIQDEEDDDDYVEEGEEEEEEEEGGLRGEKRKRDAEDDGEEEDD
UniProt Q9BV10: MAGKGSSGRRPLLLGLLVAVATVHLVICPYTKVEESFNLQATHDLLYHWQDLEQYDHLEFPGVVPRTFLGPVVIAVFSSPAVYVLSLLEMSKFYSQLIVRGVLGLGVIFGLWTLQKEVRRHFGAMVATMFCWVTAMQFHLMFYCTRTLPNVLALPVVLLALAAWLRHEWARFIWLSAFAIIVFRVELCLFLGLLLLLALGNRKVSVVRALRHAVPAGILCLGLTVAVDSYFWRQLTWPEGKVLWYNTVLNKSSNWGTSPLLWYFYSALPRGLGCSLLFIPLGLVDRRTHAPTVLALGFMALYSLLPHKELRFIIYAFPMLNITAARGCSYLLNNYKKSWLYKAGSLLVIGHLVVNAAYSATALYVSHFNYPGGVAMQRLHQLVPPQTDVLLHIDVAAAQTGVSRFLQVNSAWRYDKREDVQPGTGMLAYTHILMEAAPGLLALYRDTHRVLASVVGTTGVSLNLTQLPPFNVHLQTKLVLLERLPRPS
UniProt Q92685: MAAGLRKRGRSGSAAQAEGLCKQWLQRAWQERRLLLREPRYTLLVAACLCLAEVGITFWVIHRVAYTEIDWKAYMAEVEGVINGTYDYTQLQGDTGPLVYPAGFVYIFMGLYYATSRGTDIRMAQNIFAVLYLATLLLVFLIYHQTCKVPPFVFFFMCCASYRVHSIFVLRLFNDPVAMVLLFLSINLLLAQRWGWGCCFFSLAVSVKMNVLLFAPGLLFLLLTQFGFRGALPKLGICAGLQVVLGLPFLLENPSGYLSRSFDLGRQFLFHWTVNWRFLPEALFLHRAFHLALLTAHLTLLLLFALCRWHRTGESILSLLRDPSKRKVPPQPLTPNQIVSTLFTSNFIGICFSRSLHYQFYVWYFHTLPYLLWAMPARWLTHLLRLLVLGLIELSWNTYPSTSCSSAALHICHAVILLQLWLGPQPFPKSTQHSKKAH

For 18 targets, log2 fold change results are on record in the supplement of paper PMC10849652.

Compound in the assay: CCCS(=O)(=O)Nc1ccc(F)c(C(=O)c2c[nH]c3ncc(-c4ccc(Cl)cc4)cc23)c1F [vemurafenib]
Briefly: log2 fold change, soluble protein after heating vs DMSO (PISA); higher = thermal stabilisation; K562 lysate, 10 uM; active = over 0.2 and 3.5 SD of the protein, either way, in both replicates (recomputed). Summed up: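 A 30 min treatment with 10 μM compound was applied to crude K562 extract at 1 mg/mL protein in PBS pH 7.4 with 1 mM MgCl2. Heating for 3 min spanned 48°C-58°C, after which aliquots were pooled, adjusted to 0.5% NP-40 at 4°C and spun at 21,000xg for 90 min. TMTpro 16plex LC-MS/MS of the supernatant, with channel sums equalised, gave values recorded as log-two fold change in thermal stability against solvent controls, from duplicates.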
As for AMBRA1 isoform 5 (UniProt Q9C0C7), the log2 fold change was inactive: 0.041.
On to ANKRD29 (UniProt Q8N6D5), for which the log2 fold change was inactive: 0.344.
Under ANKRD40 (UniProt Q6AI12) stands inactive: 0.501; under ANAPC16 (UniProt Q96DE5), inactive: -0.071.
For the target ANKRD44 isoform 2 (UniProt Q8N8A2), the log2 fold change is inactive: 0.056.
Under ANGPTL4 (UniProt M0R3A2) stands inactive: 0.45; under AP4M1 (UniProt O00189), inactive: 0.106.
For AMOTL1 (UniProt Q8IY63), the log2 fold change is inactive: 0.334.
With ALDH9A1 (UniProt P49189) the figure was inactive: 0.174; with ANKH (UniProt Q9HCJ1), inactive: 0.068; with ANKLE2 (UniProt Q86XL3), inactive: 0.001.
Under AP3M2 (UniProt P53677) stands inactive: 0.037; under ANKS3 (UniProt Q6ZW76), inactive: 0.006; under ANP32E isoform 3 (UniProt Q9BTT0), inactive: 0.034.
With ALG12 (UniProt Q9BV10) the figure was inactive: -0.007.
As to AP3D1 isoform 2 (UniProt O14617), the log2 fold change was inactive: 0.002.
ALDOA (UniProt H3BPS8): the log2 fold change is inactive: -0.011.
Under ALG3 (UniProt Q92685) stands inactive: 0.084.
